Experimental data from PubChem BioAssay AID504847 (National Center for Advancing Translational Sciences (NCATS), 2011).
Several values for one entry are separate records, joined by “and”; a condition that tells them apart may be missing. Equal entries are not always repeated. Hit rate of the full screen: of about 400,000 compounds, about 3,700 (0.93%) were called active. This list was built around the results that the source calls inconclusive (neither active nor inactive); the mix of calls is not that of the screen. Calls come from the whole dose curve; as a rule, active = well fitted inhibition curve with a large enough effect; inconclusive = small, poorly fitted or top-dose-only effect, or another doubt; inactive = no such curve, though single readings can be large or run the other way. Where the call is inconclusive, the potency comes from a doubtful curve fit.

Amino acid sequences for entries named in this document (tags omitted). A change or cut given only in a name is not applied to a line headed by its entry.
UniProt P11473: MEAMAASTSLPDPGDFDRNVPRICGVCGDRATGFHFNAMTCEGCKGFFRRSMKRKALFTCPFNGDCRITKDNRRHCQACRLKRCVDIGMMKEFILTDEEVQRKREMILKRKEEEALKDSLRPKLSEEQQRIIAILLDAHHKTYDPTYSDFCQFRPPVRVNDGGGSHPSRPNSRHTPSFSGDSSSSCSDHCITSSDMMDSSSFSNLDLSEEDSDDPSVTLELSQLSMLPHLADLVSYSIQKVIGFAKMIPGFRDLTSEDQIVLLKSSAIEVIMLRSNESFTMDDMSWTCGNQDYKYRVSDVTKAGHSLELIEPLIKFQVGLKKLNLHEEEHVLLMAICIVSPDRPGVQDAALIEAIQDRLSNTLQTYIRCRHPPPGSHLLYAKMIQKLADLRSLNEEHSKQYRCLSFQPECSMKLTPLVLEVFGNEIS

The compounds below were run against Vitamin D3 receptor (Homo sapiens) (UniProt P11473) (assay: Inhibitors of the vitamin D receptor (VDR): qHTS). Settings: VDR-SRC2-3 peptide fluorescence polarization, 2 h; max response, negative = inhibition: hits give low values.
Method in brief: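 Signal is fluorescence polarization, reporting how far test compounds block the interaction of VDR with the SRC2-3 coregulator peptide after a 2 h room-temperature incubation.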
% is set by controls: 0 for no effect and ±100 for the full control effect; potency is the fitted concentration of half-maximal effect.

SMILES	Potency	max response, negative = inhibition
CC(=O)OC1CC2C(C)(C)C(=O)CC[C@]2(C)C2CC[C@@]3(C)C(c4ccoc4)OC(=O)C4OC43[C@]12C (stereo not given in full)	inconclusive: 35.5 µM [inhibitor, full curve]	
COCCn1c(SCc2ccc(F)cc2)nc2c1c(=O)[nH]c(=O)n2C	inconclusive: 79.4 µM [inhibitor, partial curve, poor fit]	
Cc1ccoc1C(=O)N1CCCCC1C(=O)O (stereo not given)	inconclusive: 25.1 µM [inhibitor, single point]	
Cc1cccc(C(=O)N2CCC(=O)N([C@H](COCc3ccccc3)Cc3ccccc3)CC2)c1	inconclusive: 56.2 µM [inhibitor, partial curve, poor fit]	
Cc1ccc(CN(C)C(=O)c2ccccc2Oc2ccccc2)o1	inconclusive: 79.4 µM [inhibitor, single point]	
CCCCCCCCCCCCCCCC(=O)N[C@H](CN1CCOCC1)[C@H](O)c1ccccc1		inactive: 1.83% and inactive: -0.0291%
Cc1cc(Nc2ccc(F)c(F)c2)nc(-c2ccccc2O)n1	inconclusive: 4.47 µM [inhibitor, full curve, poor fit]	
CCn1nc(-c2ccccc2C)nc2c(=O)n(C)c(=O)nc1-2	inconclusive: 89.1 µM [inhibitor, partial curve, poor fit]	
CCCCN(C(=O)c1ccccc1F)c1c(N)n(CCC)c(=O)[nH]c1=O		inactive: -5.89%
O=C(c1ccc(F)cc1)N1CCC(c2ccccc2)C1 (stereo not given)		inactive: -11.4%
CC(C)CC(=O)Nc1nc(=S)ss1	inconclusive: 56.2 µM [inhibitor, partial curve, poor fit]	
COc1ccccc1/C=C/C(=O)OCC(=O)NC1CCCCCCC1		inactive: -5.22%
Cc1cnc(=O)[nH]c1SCC(=O)c1ccc(F)cc1	inconclusive: 44.7 µM [inhibitor, partial curve, poor fit]	
COc1cc(C(=O)Nc2ccc(S(=O)(=O)N3CCCCC3C)cc2)cc(OC)c1OC (stereo not given)		inactive: 0.525%
COc1cc(/C=C(\C#N)C(=O)Nc2ccc(C(=O)O)cc2)ccc1OC(=O)c1cccc(F)c1	inconclusive: 31.6 µM [inhibitor, partial curve]	
CCC(=O)Nc1c(S(=O)(=O)c2ccccc2)c2nc3ccccc3nc2n1Cc1ccccc1	inconclusive: 89.1 µM [inhibitor, single point]	
O=C(O)COc1ccc2c(c1)O/C(=C\c1ccco1)C2=O		inactive: -1.02%
COc1ccc(NC(=O)c2cc(-c3ccco3)nc3ccccc23)cn1	inconclusive: 79.4 µM [inhibitor, single point]	
O=C(NCc1ccco1)C1CC(c2ccccc2C(F)(F)F)=NO1 (stereo not given)	inconclusive: 89.1 µM [inhibitor, partial curve, poor fit]	
COC(=O)CS(=O)(=O)c1nc2ccccc2nc1N1CCCCC1		inactive: -14.1%

An excerpt of these results, with bars between the fields:
SMILES | Potency | max response, negative = inhibition
CCCCCCCCCCCCCCCC(=O)N[C@H](CN1CCOCC1)[C@H](O)c1ccccc1 |  | inactive: 1.83% and inactive: -0.0291%
Cc1cc(Nc2ccc(F)c(F)c2)nc(-c2ccccc2O)n1 | inconclusive: 4.47 µM [inhibitor, full curve, poor fit] | 

Carrying on:

SMILES	Potency	max response, negative = inhibition
Cc1n[nH]c(C)c1S(=O)(=O)N(CC(=O)NC(C)c1ccccc1)c1ccc(C(C)C)cc1 (stereo not given)		inactive: 0.789%
O=C1NN(c2ccccc2)C(=O)/C1=C\c1ccccc1OCC(=O)N1CCOCC1	inconclusive: 89.1 µM [inhibitor, single point]	
COc1ccc(NC(=O)/C(N=Nc2ccc(Cl)c(S(=O)(=O)Nc3ccc(Cl)cc3)c2)=C(\C)O)cc1		inactive: 3.85%
CC(C)Cn1c(-c2csc3ccccc23)n[nH]c1=S		inactive: -23.9%
Cc1ccc(-c2nnc(SCC(C)C)n2C)cc1		inactive: -2.9%
COC(=O)c1ccc(NCc2c(O)ccc(O)c2Br)cc1Cl	inconclusive: 89.1 µM [inhibitor, single point]	
COC(=O)CCN(C(C)=O)c1ccc(N)cc1	inconclusive: 39.8 µM [inhibitor, full curve, poor fit]	
COc1cccc(CNC(=O)CCC2CCCN(C(=O)c3cc(C)on3)C2)c1 (stereo not given)	inconclusive: 100 µM [inhibitor, single point]	
CC(c1ccccc1)N1C(=O)/C(=C/c2ccncc2)SC1=S (stereo not given)	active: 44.7 µM	
Cc1cc(C(=O)NNC(=S)NCc2ccco2)n(C)n1	inconclusive: 35.5 µM [inhibitor, single point]	
C=CCn1c(SCc2nc3cc(C(=O)OC)ccc3c(=O)[nH]2)nc2sc(CC)cc2c1=O	inconclusive: 89.1 µM [inhibitor, single point]	
CN(C(=O)c1sc2nc(N3CCCC3)c3c(c2c1N)CC(C)(C)OC3)c1ccccc1	inconclusive: 2.82 µM [inhibitor, partial curve, poor fit]	
COc1ccc(NC(=O)/C(C#N)=C/c2ccc(Sc3nncn3C)c([N+](=O)[O-])c2)cc1	inconclusive: 50.1 µM [inhibitor, partial curve, poor fit]	
COc1cccc2c1C(=O)c1c(O)c3c(c(O)c1C2=O)C[C@](O)(C(C)=O)C[C@H]3O[C@@H]1C[C@@H](N)[C@@H](O)[C@@H](C)O1		inactive: -2.07%
CC[C@]12c3[nH]c4cc(-c5ccco5)ccc4c3CCN1C(=O)[C@@H](CC(=O)NCCC1=CCCCC1)C[C@@H]2C(=O)N1CCN(C(=O)C2CC2)CC1	inconclusive: 63.1 µM [inhibitor, partial curve, poor fit]	
CCOc1cc(-c2ccc3c(c2)OCO3)cc(=[O+]CC)c2c(C)oc(C)c12	inconclusive: 56.2 µM [inhibitor, partial curve, poor fit] and inconclusive: 79.4 µM [inhibitor, single point]	
COC(=O)c1sccc1S(=O)(=O)Nc1ccc(C)cc1	inconclusive: 100 µM [inhibitor, partial curve, poor fit]	
COC(C[C@@H]1O[C@@H]1[C@H](O)[C@H](C)OCc1ccccc1)OC		inactive: -25.4%
O=C(C[n+]1cn(C(F)F)c2ccccc21)c1ccc(OC(F)F)cc1	inconclusive: 89.1 µM [inhibitor, single point]	
CCSc1nc(O)c(C(c2cccc(OC)c2)c2c(O)nc(SCC)[nH]c2=O)c(=O)[nH]1	inconclusive: 70.8 µM [inhibitor, partial curve]	
